# Measurements: PubChem BioAssay AID445 (National Center for Advancing Translational Sciences (NCATS), 2006)
# Some of the results follow. Shown are side measurements of this screen, not its main read-out; they come without a call. Compounds called inactive in the main read-out are mostly missing here. Potencies come from curve fits of mixed quality, noted in brackets.
# Assay: IkB Signaling
# Conditions: ABC-DLBCL IkBa-CBG/CBR dual luciferase ratio (green luciferase fused to IkBa over red control in OCI-Ly3 lymphoma cells), 4 h
# Outline: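 In this assay, an IκBα–CBG68 fusion accumulates when IKK-driven degradation is blocked; native CBR normalizes for cell number. OCI-Ly3 cells were treated 4 h with compound and doxycycline, then green and red light read after Chroma-Glo addition.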
# [1] = measured here: control luc red channel unless noted
structure (smiles),measurement,setting,value
COc1ccccc1NC(=O)Cn1cc(C(=O)c2ccncc2)c(=O)c2cc(C)ccc21,AC50,[1],"7.94 µM [falling, partial curve]"
CC1=C(c2ccc(C)c(C)c2)S(=O)(=O)N=C1N1CCC(C(=O)Nc2ccc(Cl)cc2)CC1,AC50,[1],"39.8 µM [falling, single point]"
COc1cccc(-c2cc(C(=O)Nc3c(C)nn(Cc4ccccc4)c3C)no2)c1,AC50,[1],"15.8 µM [falling, partial curve]"
CCc1ccc(-c2nc(SCC(=O)NCC3CCCO3)c(-c3ccc(F)cc3)[nH]2)cc1 (stereo not drawn),AC50,[1],"10 µM [falling, partial curve]"
COc1ccc(-c2nn(CC(=O)NCc3ccccc3)c3c2cnc2ccc(F)cc23)cc1,AC50,[1],"0.1 µM [rising, full curve]"
O=C(Cn1c(=O)nc(-c2ccccc2F)c2cc(Cl)ccc21)Nc1ccccc1C(F)(F)F,AC50,[1],"20 µM [falling, partial curve]"
Cc1ccc(-c2nc3nc(C)cc(N4CCN(c5cccc(C)c5)C(C)C4)n3n2)cc1 (stereo not drawn),AC50,[1],"39.8 µM [falling, single point]"
COC(=O)c1ccc(CSc2ccc3nnc(-c4cccc(F)c4)n3n2)o1,AC50,[1],"3.98 µM [falling, partial curve]"
O=C(NCc1cccs1)c1nn(-c2ccccc2F)nc1CO,AC50,[1],"15.8 µM [falling, partial curve]"
CCCCNC(=O)Cn1ncc2c(C)n(Cc3cccc(Cl)c3)c(C)c2c1=O,AC50,[1],"20 µM [falling, single point]"
COc1ccccc1-n1c(SCC(=O)N2CCCCC2)nnc1-c1ccccc1O,AC50,[1],"20 µM [falling, partial curve, poor fit]"
COc1ccc(NC(=O)c2cc(S(=O)(=O)N3CCCCC3)cn2C)cc1Cl,AC50,[1],"0.00794 µM [falling, full curve, poor fit]"
O=C(Nc1ccc(S(=O)(=O)N2CCCCC2c2cccnc2)cc1)c1ccc(F)cc1 (stereo not drawn),AC50,[1],"39.8 µM [falling, partial curve, poor fit]"
CCc1nnc2c3ccccc3nc(Nc3ccc(F)c(Cl)c3)n12,AC50,[1],"0.1 µM [rising, full curve]"
Cc1cccc(N(C)C(=O)c2cc(S(=O)(=O)N3CCCCC3)c[nH]2)c1,AC50,[1],"39.8 µM [falling, single point]"
O=C(Nc1ccc(Cl)cc1)c1cc2c(Cl)nc3ccccc3c2s1,AC50,[1],"39.8 µM [rising, single point]"
Oc1c(Cl)cc(Cl)c2c1NCCC2,AC50,measured here: IkB-luc green channel,"25.1 µM [rising, partial curve]"
same,AC50,measured here: control luc red channel,"39.8 µM [falling, single point]"
COC(=O)CSc1nc2sc3c(c2c(=O)n1Cc1ccccc1)CCC(C(C)(C)C)C3 (stereo not drawn),AC50,[1],"7.94 µM [rising, single point]"
COc1ccc(-c2c3c(nc4sc(C(=O)Nc5ccccc5F)c(N)c24)CC(C)(C)CC3=O)cc1,AC50,[1],"15.8 µM [falling, partial curve]"
O=C(c1ccco1)N1CCN(c2nc(C(F)(F)F)nc3c2nnn3Cc2ccccc2)CC1,AC50,[1],"31.6 µM [falling, partial curve]"
CCN(Cc1ccccc1)C(=O)CN1C(=O)CSc2ccc(S(=O)(=O)N(CC)CC)cc21,AC50,[1],"20 µM [falling, single point]"
COc1cc(-c2noc(CN3CCN(c4cccc(Cl)c4)CC3)n2)cc(OC)c1OC,AC50,[1],"0.158 µM [rising, full curve, poor fit]"
Cc1ccc(NC(=O)CSc2n[nH]c(-c3ccc(F)cc3)n2)cc1F,AC50,[1],"25.1 µM [falling, single point]"
CCOc1ccccc1NC(=O)N1CCN(C)c2ncccc21,AC50,[1],"2 µM [falling, partial curve]"
COc1ccc2nc(NC(=O)c3nc(S(=O)(=O)Cc4ccccc4)ncc3Cl)sc2c1,AC50,[1],"12.6 µM [falling, partial curve]"
Cc1ccc(CN2C(=O)CN(C3CCC(C)CC3)C(=O)C2c2ccc(F)cc2)cc1 (stereo not drawn),AC50,[1],"31.6 µM [falling, single point]"
CCOc1ccc2nc(NC(=O)CSc3nc4c(c(=O)n(C)c(=O)n4C)n3C(C)C)sc2c1,AC50,[1],"25.1 µM [falling, partial curve]"
CCCN(CCC)CCNC(=O)c1cc2c(-c3ccc(Cl)cc3)nn(C)c2s1,AC50,[1],"20 µM [falling, single point]"
Cc1ccccc1S(=O)(=O)Cc1ccc(C(=O)N2CCN(c3ccc(F)cc3)CC2)o1,AC50,[1],"25.1 µM [falling, partial curve]"
COc1ccc(-c2cc(-c3cc(F)ccc3O)[nH]n2)cc1OC,AC50,[1],"15.8 µM [falling, partial curve]"
COc1ccc(N=c2oc3c(OC)cccc3cc2C(=O)NCc2ccco2)cc1OC,AC50,[1],"15.8 µM [falling, partial curve]"
Cc1ccc(CN2CCCn3nc(C(=O)NCc4ccc(OC(C)C)cc4)cc3C2=O)cc1,AC50,[1],"31.6 µM [falling, single point]"
COC(=O)c1ccc(NC(=O)CCc2c(C)nc3c(-c4ccccc4)c(C)nn3c2C)cc1,AC50,[1],"10 µM [falling, partial curve]"
COc1ccc(-n2c(C)c(C(C)=O)c3cc(OC(=O)c4ccc(C)cc4)ccc32)cc1,AC50,[1],"10 µM [falling, partial curve]"
CCC1=Nc2cc(C(=O)NCC(C)c3ccccc3)ccc2Sc2ccc(C)cc21 (stereo not drawn),AC50,[1],"0.0794 µM [falling, full curve]"
Cc1ccc(Cn2cc(C(=O)c3ccc(F)cc3)c(=O)c3cc4c(cc32)OCO4)cc1,AC50,[1],"25.1 µM [falling, single point]"
Oc1ccc2oc3c(c2c1/C=N/n1cnnc1)CCCC3,AC50,[1],"39.8 µM [falling, single point]"
CCOC(=O)Cc1ccc(NC(=O)Nc2ccccc2OCc2cc(=O)n3ccccc3n2)cc1,AC50,[1],"0.0316 µM [falling, full curve]"
O=C(CC1SC(=Nc2ccccc2)N(CCCO)C1=O)Nc1ccc(Cl)cc1 (stereo not drawn),AC50,[1],"12.6 µM [falling, partial curve]"
CC(Oc1ccc(F)cc1)C(=O)Nc1nc(-c2ccc(F)cc2)ns1 (stereo not drawn),AC50,[1],"7.94 µM [falling, full curve]"
CCCCNC(=O)c1ccc2nc(-c3ccco3)c(-c3ccco3)nc2c1,AC50,[1],"39.8 µM [rising, single point] [measured here: IkB-luc green channel]"
COc1ccc(Cl)cc1NS(=O)(=O)c1ccc(S(=O)(=O)N2CCCC2)cc1,AC50,[1],"39.8 µM [falling, single point]"
CCCc1nnc(NC(=O)c2cccc(OC)c2)s1,AC50,[1],"10 µM [falling, partial curve]"
CC(C)CC(=O)Nc1ccc2nc(SCC(=O)N3CCCC3)sc2c1,AC50,[1],"25.1 µM [falling, single point]"
COc1ccccc1N1CCN(C(=O)c2ccccc2Oc2ccccc2)CC1,AC50,[1],"12.6 µM [falling, partial curve]"
Cc1ccc(NC(=O)CCn2nc(C)c(S(=O)(=O)N3CCCCC3)c2C)cc1Cl,AC50,[1],"31.6 µM [falling, single point]"
CCN(c1ccc(C)cc1)S(=O)(=O)c1nnc(NC(=O)C2CCCCC2)s1,AC50,[1],"0.398 µM [falling, full curve]"
CCOc1ccccc1N(CC(=O)NC1CCCCC1)C(=O)CCCC(=O)Nc1ccccn1,AC50,[1],"15.8 µM [falling, partial curve]"
CCc1ccc(NC(=O)CSC2=Nc3ccccc3C3=NC(CC(=O)NC4CCCCC4)C(=O)N23)cc1 (stereo not drawn),AC50,[1],"0.251 µM [falling, full curve]"
COc1ccc(NC(=O)C2CCCN(S(=O)(=O)c3ccc4c(c3)CCCC(=O)N4)C2)cc1OC (stereo not drawn),AC50,[1],"39.8 µM [falling, single point]"
N/C(CSc1nc(-c2ccccc2)c(-c2ccccc2)o1)=N\O,AC50,[1],"15.8 µM [falling, partial curve]"
COc1ccc(-c2cc(C(=O)O)c(C)o2)cc1OC,AC50,[1],"0.0251 µM [falling, full curve]"
Cc1ccc(OCC(=O)NCC2(N3CCOCC3)CCCCC2)cc1C,AC50,[1],"39.8 µM [falling, single point]"
COc1cccc(-c2nnc(Nc3nc4c(F)cccc4s3)o2)c1,AC50,[1],"0.1 µM [falling, full curve]"
CCCCN(CCCC)CCNC(=O)c1cn(CC)c2ccc(S(=O)(=O)N3CCc4ccccc4C3)cc2c1=O,AC50,[1],"15.8 µM [falling, partial curve]"
Cc1oc(-c2cccc(Cl)c2)nc1CN1CCC(C(=O)NCCCN2CCN(c3ccccc3F)CC2)CC1,AC50,[1],"20 µM [falling, partial curve]"
COc1ccc(N(Cc2cccs2)C(=O)c2ccc(Br)o2)cc1,AC50,[1],"5.01 µM [falling, partial curve]"
Cc1noc(C)c1-c1ccc2ncnc(NC3CC3)c2c1,AC50,[1],"3.98 µM [rising, partial curve] [measured here: IkB-luc green channel]"
Cc1ccn2c(Nc3ccc(F)cc3)c(-c3ccccn3)nc2c1,AC50,[1],"25.1 µM [falling, partial curve]"
COc1ccc(OC)c(Nc2ncnc3c2cnn3-c2cccc(Cl)c2)c1,AC50,[1],"1 µM [falling, partial curve]"
CCCCC(=O)OC1=C(C(C)=O)N(Cc2ccccc2)S(=O)(=O)c2ccccc21,AC50,[1],"31.6 µM [falling, single point]"
CCC(Sc1ncnc2sc3c(c12)CCCC3)C(=O)OC(C)C (stereo not drawn),AC50,[1],"31.6 µM [falling, partial curve]"

# A different layout for part of the listing above.
structure (smiles) | measurement | setting | value
O=C(Nc1ccc(Cl)cc1)c1cc2c(Cl)nc3ccccc3c2s1 | AC50 | [1] | 39.8 µM [rising, single point]
COc1ccc(-c2c3c(nc4sc(C(=O)Nc5ccccc5F)c(N)c24)CC(C)(C)CC3=O)cc1 | AC50 | [1] | 15.8 µM [falling, partial curve]
CCN(Cc1ccccc1)C(=O)CN1C(=O)CSc2ccc(S(=O)(=O)N(CC)CC)cc21 | AC50 | [1] | 20 µM [falling, single point]
COC(=O)c1ccc(NC(=O)CCc2c(C)nc3c(-c4ccccc4)c(C)nn3c2C)cc1 | AC50 | [1] | 10 µM [falling, partial curve]
